# Results as given in publication PMC12040169 (PLOS Biology, 2025).
# The other results are listed elsewhere or left out.
# Tested on: T1, CTL2-GFP (C. trachomatis L2/434/Bu, GFP-expressing)
# T1 construct: L2/434/Bu, GFP-expressing
# Set-up: species or system HeLa; Intracellular C. trachomatis growth in HeLa cells, bulk GFP fluorescence relative to DMSO
# Conditions: bulk GFP, single well; 28.5 h, 10 µM; inhibitor
row,Structure (SMILES),% of control remaining
1,O=C(NCC(CN1CCOCC1)([N+](=O)[O-])[N+](=O)[O-])c1ccccc1 [CBK261339],100.713%
2,Cc1ccc(OCC(=O)Nc2cccc3nsnc23)c(C)c1 [CBK263816],100%
3,Cc1ccc(S(=O)(=O)Nc2nnc(C3CCCCC3)s2)cc1 [CBK022722],119.307%
4,CC(=O)Nc1ccc(NC(=O)CSCc2ccc(Cl)cc2Cl)cc1 [CBK131696],101.556%
5,Cc1cc(C(=O)NCCCn2ccnc2)no1 [CBK268145],106.809%
6,COc1nc(SC)nc2[nH]ccc12 [CBK085861],101.409%
7,CC(C)Oc1ccc(C2CC(=O)N(c3cccc(C(=O)O)c3)C2=O)cc1 (stereo not drawn) [CBK291181],164.987%
8,CC1(C)CC(=O)C=C(SCC(=O)C(C)(C)C)S1 [CBK005523],97.1723%
9,O=C(COc1ccccc1C1CC(=O)Nc2ccc3ccccc3c21)Nc1ccccc1 (stereo not drawn) [CBK265704],115.69%
10,CCCn1cnc2sc(C(=O)O)c(C)c2c1=O [CBK287199],127.812%
11,CC1CCC(N(C)Cc2nc3sc4c(c3c(=O)[nH]2)CCC4)CC1 (stereo not drawn) [CBK305876],139.472%
12,Cc1ncccc1C(=O)N1CCC(F)CC1 [CBK200398],119.177%
13,CC1(OCCCO)SC(NC2CCCCCC2)=NC1=O (stereo not drawn) [CBK107927],111.648%
14,CC(C)c1ccc(C(=O)N2CCC(n3cnc4cccnc43)CC2)cc1 [CBK282370],140.314%
15,Cc1cc2nc(-c3cc(NC(=O)c4ccc(C)c([N+](=O)[O-])c4)ccc3O)oc2cc1C [CBK262779],132.678%
16,COc1cc(CNC(=O)NC(=O)C2CCN(CCc3c(-c4ccccc4)[nH]c4ccccc34)CC2)cc(OC)c1OC [CBK034859],149.341%
17,CC(NC(=O)c1ncoc1-c1ccc(F)cc1)c1ccncc1 (stereo not drawn) [CBK282319],111.905%
18,Cc1cccc(-c2n[nH]c(=S)n2CC(=O)NCCCS(=O)(=O)Cc2ccccc2)c1 [CBK297942],116.557%
19,CCOC(=O)c1[nH]c2ccccc2c1NC(=O)c1ccoc1 [CBK160169],99.3587%
20,Cn1nccc1NS(=O)(=O)c1ccc(-c2cc(C(F)(F)F)on2)s1 [CBK062087],96.6453%
21,Cn1c(C(N)=O)cc(=O)n1-c1ccc([N+](=O)[O-])cc1 [CBK015873],95.3162%
22,Cc1csc(C(=O)N2CCC(c3cc(O)cc(C)n3)CC2)c1 [CBK283466],132.854%
23,CC(C)(C)c1csc(Nc2ncc(C(F)(F)F)cc2Cl)n1 [CBK021513],154.481%
24,CCCOc1ccc(N2C(=O)CC(N3CCC(C(=O)O)CC3)C2=O)cc1 (stereo not drawn) [CBK287235],111.536%
25,CCn1cc(C(=O)N2CCC(Oc3ccccc3C)(C(=O)O)CC2)cn1 [CBK306699],103.991%
26,CC(=O)Nc1nc2ccc(S(C)(=O)=O)cc2s1 [CBK287336],93.4821%

row,Structure (SMILES),% of control remaining
1,CC(NC(=O)/C(=C\c1ccccc1)NC(=O)c1ccc(Br)o1)C(=O)O (stereo not drawn) [CBK264934],91.5181%
2,O=C(O)Cc1ccc(NC(=O)C2Cc3ccccc3C(=O)O2)cc1 (stereo not drawn) [CBK269406],146.289%
3,COc1ccccc1CNS(=O)(=O)c1ccccc1[N+](=O)[O-] [CBK261699],106.827%
4,Cc1cc(Cl)c(S(=O)(=O)Nc2cccnc2)cc1OCC(=O)NC1CCCCC1 [CBK266773],152.401%
5,COc1ccccc1-c1cnc2[nH]c(=O)n(CC(C)(C)CO)c2n1 [CBK064690],135.326%
6,CC(C)(C)OC(=O)NCc1ccc(CNCc2cc(F)cc(F)c2)cc1 [CBK056707],119.726%
7,CC(C)(C(=O)N1CCC(C(=O)NCCc2c[nH]c3ccccc23)C1)c1ccc(F)cc1 (stereo not drawn) [CBK286034],119.672%
8,CC(C)NC(=O)N1Cc2nc[nH]c2C[C@H]1c1nc(-c2ccc(F)c(Cl)c2)no1 [CBK288999],123.328%
9,Cc1ccc(S(=O)(=O)N2CCN(Cc3cc(Br)ccc3O)CC2)cc1 [CBK264242],100%
10,OC1(c2ccc(F)cc2)CC2CCC(C1)N2Cc1ccccn1 (stereo not drawn) [CBK283490],100.276%
11,O=C(NCC1CCCN1)c1ccccc1Nc1cccc(C(F)(F)F)c1 (stereo not drawn) [CBK115916C],68.7658%
12,Clc1ccc(-c2cc(CN3CCCCC3)no2)cc1Cl [CBK018435],138.654%
13,O=S(=O)(Nc1ccc2nsnc2c1)c1ccc(F)cc1 [CBK051010],124.121%
14,COC(=O)c1cccc2c1[nH]c1ccccc12 [CBK001709],113.789%
15,Cc1cccc(CC(=O)N2CCCC2c2ccnc3cc(C)nn23)c1 (stereo not drawn) [CBK283472],105.094%
16,CC(C(=O)N1CCC(C(=O)c2nccs2)CC1)c1ccccc1 (stereo not drawn) [CBK284163],119.327%
17,CCC(NC(=O)c1csc2c1CCCC2)c1ccccc1 (stereo not drawn) [CBK059006],97.9312%
18,CC1=C[C@@H](CNS(=O)(=O)c2ccccc2)[C@H](C(C)C)C[C@H]1CC(=O)N1CCOCC1 [CBK289049],112.056%
19,CCOC(=O)Cn1nc(CC)c(Cc2c(Cl)cccc2Cl)c1C [CBK113222],101.477%
20,COc1ccc(NC(=O)c2cnc(-c3ccc(Cl)cc3)c(-c3ccc(C(C)=O)s3)c2)cn1 [CBK036643],160.145%
21,C=C1C2(C(=O)NCCn3nc(C)c(Cl)c3C)CCC(C2)C1(C)C (stereo not drawn) [CBK281661],127.068%
22,COc1ccc(C(NC(=O)C2CCN(C(=O)NC(C)(C)C)CC2)c2ccccn2)cc1 (stereo not drawn) [CBK060298],88.6201%
23,O=C(c1ccccc1)N1CCCC1c1n[nH]cc1-c1ccncc1 (stereo not drawn) [CBK283433],127.155%
24,COc1cc(C2CN=NC23Cc2ccccc2C3=O)cc(OC)c1OC (stereo not drawn) [CBK019341],113.146%
25,Cc1ncccc1C(=O)NC(Cc1cccs1)c1nccs1 (stereo not drawn) [CBK285153],96.0487%
26,COCCCn1c(=O)[nH]c2ncc(-c3ccco3)nc21 [CBK064449],105.095%

# Looked up by structure from the entries so far, 5 records:
row,Structure (SMILES),% of control remaining
7,CC(C)(C(=O)N1CCC(C(=O)NCCc2c[nH]c3ccccc23)C1)c1ccc(F)cc1 (stereo not drawn) [CBK286034],119.672%
15,Cc1cccc(CC(=O)N2CCCC2c2ccnc3cc(C)nn23)c1 (stereo not drawn) [CBK283472],105.094%
5,COc1ccccc1-c1cnc2[nH]c(=O)n(CC(C)(C)CO)c2n1 [CBK064690],135.326%
21,C=C1C2(C(=O)NCCn3nc(C)c(Cl)c3C)CCC(C2)C1(C)C (stereo not drawn) [CBK281661],127.068%
14,COC(=O)c1cccc2c1[nH]c1ccccc12 [CBK001709],113.789%

# Going on with the list.

row,Structure (SMILES),% of control remaining
1,O=C(Nc1nc2ccc(Br)cc2s1)C1CC1 [CBK026046],98.085%
2,O=C(c1cccc(S(=O)(=O)Nc2ccccn2)c1)N1CCCc2ccccc21 [CBK269645],142.822%
3,Cc1c(C(=O)C2=C(O)C(=O)N(CCCN(C)C)C2c2cccnc2)cnn1-c1ccccc1 (stereo not drawn) [CBK269312],99.4615%
4,CCOC(=O)c1c(N)sc2c1CC(c1ccccc1)SC2c1ccccc1 (stereo not drawn) [CBK293955],155.389%
5,OC1(c2cccnc2)CCCC2CN(Cc3ccc(F)c(F)c3)CC21 (stereo not drawn) [CBK284511],77.8619%
6,CN1CCN(C(=O)c2ccc(-c3cnc(N)c(-c4ccc(O)cc4)n3)cc2F)CC1 [CBK200421],110.101%
7,Cn1c(CN2CCCCC2)nc2cc(NS(=O)(=O)c3ccc(Cl)cc3)ccc21 [CBK268404],135.674%
8,Cc1nn(C)c(N2CCNCC2)c1NC(=O)c1cccn1C [CBK050309T],118.346%
9,CCCCCNC(=N)NC1Cc2ccccc2C1 [CBK036321T],142.403%
10,O=c1[nH]nc2c3c(nc(-c4ccncc4)n12)CCCC3 [CBK288029],101.187%
11,CCc1c(C)c2cc(Cl)c(O)c(CN3CCCC3)c2oc1=O [CBK267099],185.628%
12,C=CCn1c(SCC(=O)Nc2ccc(OC)cc2)nnc1-c1ccncc1 [CBK126824],120.612%
13,O=S(=O)(Nc1nnc(C(F)(F)F)s1)c1ccc(Br)cc1C(F)(F)F [CBK062013],117.902%
14,Cc1cc(C(=O)Nc2ccc(S(=O)(=O)N3CC(C)OC(C)C3)cc2)c2ccccc2n1 (stereo not drawn) [CBK295170],164.836%
15,CC(NC(=S)Nc1ccc(S(N)(=O)=O)cc1)c1ccncc1 (stereo not drawn) [CBK267073],91.006%
16,COc1ccc(Br)cc1CN1CCC(N2CCN(c3ccccc3OC)CC2)CC1 [CBK264681G],100%
17,COc1cccc(S(=O)(=O)Nc2nn(Cc3ccc(C)cc3)c3ccccc23)c1 [CBK048043],88.5853%
18,CN1C(=O)COc2ccccc2CCCC[C@@H]2[C@H]1CCCN2C(=O)Cn1ccnc1 [CBK292152],125.457%
19,C[C@H]1CN2C[C@H](O)CC2CN1Cc1cn(C)c2ccc(F)cc12 (stereo partly drawn) [CBK285428],106.366%
20,CC(C)(C)OC(=O)N1CCN(c2ncc([N+](=O)[O-])s2)CC1 [CBK000135],106.556%
21,COc1ccc(CCOC(=O)Nc2cn(C)nc2C(F)(F)F)cc1OC [CBK021070],106.601%
22,COc1ccc2cc(CNC(Cc3ccccc3)c3ccccc3)c(Cl)nc2c1 (stereo not drawn) [CBK295357],173.591%
23,NC(=O)C1CCN(C(=O)CN2CCN(Cc3ccccc3)CC2)CC1 [CBK265971C],132.766%
24,Cn1cc([C@@H]2O[C@H](CO)[C@H](O)C2O)c(=O)n(C)c1=O (stereo partly drawn) [CBK201191],152.616%
25,O=S(=O)(Nc1nc(-c2sccc2Cl)cs1)c1cc(Cl)ccc1Cl [CBK014147],116.117%
26,CC(=O)O[B-]1(OC(C)=O)N(c2ccc(S(N)(=O)=O)cc2)N=C(c2ccccc2)N=[N+]1c1ccccc1 [CBK260879],100%
